# Screening data, single-dose tests

From ChEMBL document CHEMBL3988442, “University of Dundee, Small-Polar-MMV Screening Library” (2021).

The filed quantity is “Percent Effect” (%). The record does not define 0% and 100%; most values in the screen are far below 50% and negative numbers occur (in some assays of this library far below -100). The compounds are a random part of those screened. Two or more numbers in one place are separate tests of the same structure; such repeats can differ widely.

Mtb cholesterol medium: 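Growth of Mycobacterium tuberculosis over 4 days (cholesterol / DPPC medium with tyloxapol); the read-out is not stated. Tested at 50 µM. The record gives no direction; compounds that gave an IC50 in retests scored well above the rest, so higher reads as more growth inhibition. About 69,000 compounds were tested under these conditions; 0.54% (about 370) showed 50% or more at least once.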
Mtb glucose medium: 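Whole-cell growth test on Mycobacterium tuberculosis, read after 3 days in glucose-containing 7H9 medium; the read-out is not stated. Concentration: 50 µM. Direction is inferred from retests: higher values go with more growth inhibition. About 69,000 compounds were tested under these conditions; 1.1% (about 760) showed 50% or more at least once.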

| SMILES | Mtb cholesterol medium | Mtb glucose medium |
|---|---|---|
| `CC(C)N(CC(N)=O)CC(=O)NCCc1c(F)cccc1F` | -6.385% | 13.66% |
| `Cc1ccc(CS(=O)(=O)NCc2ccco2)cc1` | -11.59% | -3.484% |
| `CCC(=O)N1CCC(Oc2ccc(C(=O)NCCN(C)C)cc2Cl)CC1` | -23.67% | -2.764% & -31.96% |
| `COCc1cccc(C(=O)N2CCN(C3=NCC(C)(C)S3)CC2)c1` | 7.115% | 14.9% |
| `Cc1ccc(C)n1-c1c(C(=O)NCC(C)Cn2cccn2)cnn1C` (stereo not given) | -16.95% | 4.538% |
| `OCC1(O)CCN(Cc2ccc(C3CCCCO3)o2)CC1` (stereo not given) | -3.467% & -12.24% | 6.644% |
| `Cc1cc(NC(=O)NCC(C)N2CCOCC2)n(C)n1` (stereo not given) | 2.158% | -18.11% & -1.304% |
| `Cc1ccc(CN(CC(=O)NC2CCOCC2)c2ccc(F)cc2)o1` | -3.78% | 6.924% |
| `Cc1oc(-c2ccsc2)nc1CC(=O)NCCS(C)(=O)=O` | -24.82% | -28.18% |
| `O=C(O)C(F)(F)F.O=C(O)C(F)(F)F.[H][C@@]12CCN(Cc3cccnc3)[C@]1([H])CC[C@H](C(=O)NCc1ccco1)O2` | -9.445% | -16.12% & 2.035% |
| `O=C(O)C(F)(F)F.[H][C@@]12C[C@H](C(=O)NCc3ccccc3)[C@@]([H])(CN(CCC(C)C)C1)O2` | -5.538% | 12.97% |
| `Cc1ccc(CCNC(=O)CC2COCCN2S(=O)(=O)N(C)C)o1` (stereo not given) | -24.88% | -17.54% |
| `NC(=O)c1cncc(-n2ccc(-c3cnccn3)n2)c1` | 11.39% | -2.277% |
| `Cc1nc(C(C)C)sc1CNC(=O)CCCN1CCCCC1` | -22.98% | -41.58% |
| `CCc1nc(CN2CCN(c3ncnc4cc(F)ccc34)CC2)no1` | -23.83% | -73.54% |
| `CC1N(C)C(=O)COC12CCN(Cc1nccs1)CC2.O=C(O)C(F)(F)F` (stereo not given) | -2.159% | 1.636% |
| `Cc1nccn1[C@@H]1CC[C@@H](NC(=O)CCCn2cccn2)[C@H]1O` | -1.903% & -17.45% | -24.43% |
| `CCn1nc2c(cc1=O)CN(CC1CCCCO1)CC2` (stereo not given) | -30.61% | -37.43% |
| `CCn1[nH]c(C)c2c(C(F)(F)C(F)(F)F)cc(=O)nc1-2` | 6.607% | 29.9% |
| `O=C(NCCn1ccc(-c2ccncc2)n1)C1CC1` | -5.413% | -13.97% |
| `Cn1ncc(NCc2cccc(COC(C)(C)C)c2)c(Cl)c1=O` | 37.68% | 37.47% |
| `CN(C)C(=O)Cn1ccc2cc(NC(=O)N3CCOCC3)ccc21` | -4.044% | -25.33% |
| `COc1ccc(CN2CCc3ncnc(C4CCOC4)c3CC2)cc1.O=C(O)C(F)(F)F` (stereo not given) | 5.476% | -0.5859% |
| `O=C(O)CNc1cc(-c2cc(C3CC3)ncn2)c2cc[nH]c2n1` | -14.33% | -26.82% |
| `COc1ccc(OC)c(-n2nnnc2SCC2CCCN(C)C2)c1` (stereo not given) | 9.268% | -16.9% & 2.335% |
| `CC(C)(C)C(C#N)NC(=O)c1ccc(Oc2cccnc2)cc1` (stereo not given) | 3.252% & -1.403% | 33.48% |
| `Cc1nn(C)c(N(C)C)c1CNCc1cnn(Cc2ccccc2)c1` | 19.07% | -12.29% & 11.99% |
| `O=C(C1CC1)N1CCC(c2nc(O)c3c(n2)CN(C2CCCC2)CC3)C1` (stereo not given) | -28.81% | -22.24% |
| `Cc1ncsc1C(=O)N(C)CCc1ccncc1` | -0.6781% | -27.88% |
| `Cc1ccc(CNC(c2ccccc2)c2nccn2C)cc1C` (stereo not given) | 10.28% | 39.82% |
| `CCS(=O)(=O)N1CCCn2c(nc(CN3CCCC3)cc2=O)C1` | 18.13% | 25.18% |
| `N#Cc1cccc(C(=O)N2CCC(Nc3cccnn3)CC2)c1` | 1.445% | 3.903% |
| `Cc1ccccc1S(=O)(=O)N1CCc2c(ncnc2N(C)C)C1` | -10.23% | -25.07% |
| `Cc1nn(-c2ncnc3[nH]cnc23)c2c1C(C(C)(C)C)CC(=O)N2` (stereo not given) | 18.86% | -1.951% & 10.15% |
| `CCOc1ccc(NC(C)=O)cc1S(=O)(=O)Nc1ccon1` | 23.83% | 1.356% & 3.468% |
| `CC(NC(=O)CCCc1ccc(Cl)cc1)c1n[nH]c(=O)[nH]1` (stereo not given) | 3.091% & -7.159% | -3.21% |
| `COC(=O)NCC(=O)N1CCC(Oc2cccc(C)c2)CC1` | -10.95% | -25.74% |
| `O=C(C1CCCC1)N1CC2(CCNC2)OCc2ccccc21` (stereo not given) | -10.63% | -0.7865% |
| `O=C(c1ccc2c(c1)COC2)N1CCC(Nc2cccnn2)CC1` | -17.03% | 1.146% |
| `COc1ccc(-n2c(COC(C)C)n[nH]c2=O)cc1` | -4.119% & 5.127% | 6.379% & 3.543% |
| `O=C(O)C(F)(F)F.O=C(O)C(F)(F)F.[H][C@@]12OCCN(Cc3ccoc3)[C@@]1([H])CC[C@H]2OCc1ccncc1` | -38.37% | -18.2% |
| `O=C(O)C(F)(F)F.O=C(O)C(F)(F)F.[H][C@@]12CN(Cc3ccc(OC)cc3)C[C@]1([H])OCCN2c1ncccn1` | 13.76% | -14.38% |
| `CC(C)NC(=O)Nc1ncc(-c2cccnc2)s1` | 6.013% | 22.33% |
| `CCN(CC)C(=O)c1nc2c(s1)CCN(C(=O)CCC(=O)OC)CC2` | 11.95% | -15.21% & -2.528% |
| `COc1ncccc1NC(=O)C1CCN(S(C)(=O)=O)CC1` | 0.1969% | 14.77% |
| `O=C(O)C(F)(F)F.O=C(O)C(F)(F)F.O=C(c1cnccn1)N1CCCC2(CCN(Cc3cccnc3)C2)C1` (stereo not given) | -14.77% | 19.75% & -1.055% |
| `COc1ccc(C)cc1CN(CC(N)=O)C(C)C` | -24.73% | -33.55% |
| `NC(=O)c1ccc(C(=O)N2CCCCC2C2OCCO2)cc1` (stereo not given) | 3.994% | 5.901% |
| `CN(CCc1ccccc1)c1cnn(C)c(=O)c1Br` | 6.448% | 7.762% |
| `CS(=O)(=O)NCc1nnc2n1CCN(Cc1ccncc1)C2` | -15.42% & -4.76% | -37.11% |
| `O=C(O)C(F)(F)F.[H][C@]12CC[C@@]3(N=C(CC)NC3=O)[C@@]1([H])CN(Cc1ccccc1C)C2` | 20.23% | -0.8609% & 1.192% |
| `COC(=O)c1cccc(NCC(=O)NC(N)=O)c1` | -26.36% | -24.9% |
| `[H][C@]12CC[C@]([H])(CN(Cc3ccccc3)C1)N(C(=O)C1CCS(=O)(=O)CC1)C2` | -11.62% | -51.09% |
| `CSc1nsc(NC(=O)c2cc(C3CC3)nn2C)n1` | 26.93% & 18.65% | 34.7% |
| `CN1C(=O)COc2ccc(C(=O)Cn3cnc4ccccc4c3=O)cc21` | -22.51% | -2.319% |
| `Cc1cc(CS(=O)(=O)NC2CCCCC2)on1` | -8.007% | 4.184% |
| `O=C(O)C(F)(F)F.[H][C@@]12COC[C@]1([H])[C@H](NC(=O)C1CCC1)CN2Cc1ccccn1` | -16.51% & 9.769% | 2.329% & -12.12% |
| `Cc1ccc(-c2nnn(CCN3C(=O)CCC3=O)n2)cc1` | -15.59% | -25.94% |
| `Cc1ccc(-c2cc(C(=O)N3CCCC3c3cccnc3)[nH]n2)o1` (stereo not given) | 4.507% | -7.646% |
| `Cc1nn(CCC#N)c(C)c1[C@@H]1C=C[C@@H](NCc2cccc(Cl)c2)C1` | 31.07% | 5.407% & 14.63% |
| `Clc1ccc(C(CNCc2cccnc2)n2cccn2)cc1` (stereo not given) | -7.684% | 10.68% & -11.88% |
| `OC(CN1CCN(CC2CCCCC2)CC1)c1ccccc1` (stereo not given) | 16.07% & -11.93% | 6.138% |
| `O=C(CN1CCCC1Cn1cncn1)Nc1ccnn1C1CCCC1` (stereo not given) | -1.312% | 17.45% |
| `Cc1nc(CN2CCC3(CC2)CCN(C(=O)c2cscn2)C3)cs1.O=C(O)C(F)(F)F` | -7.881% & -12.83% | -17.56% |
| `Cc1nc2c(cc1C(=O)Nc1ccccc1Cl)c(=O)n(C)c(=O)n2C` | 6.093% | -5.772% |

The first 7 entries again:

| SMILES | Mtb cholesterol medium | Mtb glucose medium |
|---|---|---|
| `CC(C)N(CC(N)=O)CC(=O)NCCc1c(F)cccc1F` | -6.385% | 13.66% |
| `Cc1ccc(CS(=O)(=O)NCc2ccco2)cc1` | -11.59% | -3.484% |
| `CCC(=O)N1CCC(Oc2ccc(C(=O)NCCN(C)C)cc2Cl)CC1` | -23.67% | -2.764% & -31.96% |
| `COCc1cccc(C(=O)N2CCN(C3=NCC(C)(C)S3)CC2)c1` | 7.115% | 14.9% |
| `Cc1ccc(C)n1-c1c(C(=O)NCC(C)Cn2cccn2)cnn1C` (stereo not given) | -16.95% | 4.538% |
| `OCC1(O)CCN(Cc2ccc(C3CCCCO3)o2)CC1` (stereo not given) | -3.467% & -12.24% | 6.644% |
| `Cc1cc(NC(=O)NCC(C)N2CCOCC2)n(C)n1` (stereo not given) | 2.158% | -18.11% & -1.304% |